Assay [1] concerns the target MOKV G_(1-436)* (soluble Mokola virus glycoprotein G ectodomain, fusion loops replaced by hydrophilic sequences) (Mokola virus) (UniProt P0C572). The experiment in a line: negative staining electron microscopy; both purified.
Assay [2] has the same target. The experiment in a line: SEC-MALS; pH 8; both purified. On the technique in general: Size exclusion chromatography separates by hydrodynamic size, large species first.

These are yes or no findings as the source states them, for the method shown.

Regarding “MOKV G_(1-436)* (soluble Mokola virus glycoprotein G ectodomain, fusion loops replaced by hydrophilic sequences) (from UniProt P0C572 20-455) (domain or fragment)”, the binding entry in assay [1] and in assay [2] was “no binding” throughout.
